Results on 3 substances are retold here after article doi:10.1101/2021.02.17.431757.

By UniProt entry, the sequences of proteins in these tests, tags left out. Where a name states a change or a piece, a line headed by the entry shows the natural chain unless it says otherwise.
UniProt Q92547, whole entry: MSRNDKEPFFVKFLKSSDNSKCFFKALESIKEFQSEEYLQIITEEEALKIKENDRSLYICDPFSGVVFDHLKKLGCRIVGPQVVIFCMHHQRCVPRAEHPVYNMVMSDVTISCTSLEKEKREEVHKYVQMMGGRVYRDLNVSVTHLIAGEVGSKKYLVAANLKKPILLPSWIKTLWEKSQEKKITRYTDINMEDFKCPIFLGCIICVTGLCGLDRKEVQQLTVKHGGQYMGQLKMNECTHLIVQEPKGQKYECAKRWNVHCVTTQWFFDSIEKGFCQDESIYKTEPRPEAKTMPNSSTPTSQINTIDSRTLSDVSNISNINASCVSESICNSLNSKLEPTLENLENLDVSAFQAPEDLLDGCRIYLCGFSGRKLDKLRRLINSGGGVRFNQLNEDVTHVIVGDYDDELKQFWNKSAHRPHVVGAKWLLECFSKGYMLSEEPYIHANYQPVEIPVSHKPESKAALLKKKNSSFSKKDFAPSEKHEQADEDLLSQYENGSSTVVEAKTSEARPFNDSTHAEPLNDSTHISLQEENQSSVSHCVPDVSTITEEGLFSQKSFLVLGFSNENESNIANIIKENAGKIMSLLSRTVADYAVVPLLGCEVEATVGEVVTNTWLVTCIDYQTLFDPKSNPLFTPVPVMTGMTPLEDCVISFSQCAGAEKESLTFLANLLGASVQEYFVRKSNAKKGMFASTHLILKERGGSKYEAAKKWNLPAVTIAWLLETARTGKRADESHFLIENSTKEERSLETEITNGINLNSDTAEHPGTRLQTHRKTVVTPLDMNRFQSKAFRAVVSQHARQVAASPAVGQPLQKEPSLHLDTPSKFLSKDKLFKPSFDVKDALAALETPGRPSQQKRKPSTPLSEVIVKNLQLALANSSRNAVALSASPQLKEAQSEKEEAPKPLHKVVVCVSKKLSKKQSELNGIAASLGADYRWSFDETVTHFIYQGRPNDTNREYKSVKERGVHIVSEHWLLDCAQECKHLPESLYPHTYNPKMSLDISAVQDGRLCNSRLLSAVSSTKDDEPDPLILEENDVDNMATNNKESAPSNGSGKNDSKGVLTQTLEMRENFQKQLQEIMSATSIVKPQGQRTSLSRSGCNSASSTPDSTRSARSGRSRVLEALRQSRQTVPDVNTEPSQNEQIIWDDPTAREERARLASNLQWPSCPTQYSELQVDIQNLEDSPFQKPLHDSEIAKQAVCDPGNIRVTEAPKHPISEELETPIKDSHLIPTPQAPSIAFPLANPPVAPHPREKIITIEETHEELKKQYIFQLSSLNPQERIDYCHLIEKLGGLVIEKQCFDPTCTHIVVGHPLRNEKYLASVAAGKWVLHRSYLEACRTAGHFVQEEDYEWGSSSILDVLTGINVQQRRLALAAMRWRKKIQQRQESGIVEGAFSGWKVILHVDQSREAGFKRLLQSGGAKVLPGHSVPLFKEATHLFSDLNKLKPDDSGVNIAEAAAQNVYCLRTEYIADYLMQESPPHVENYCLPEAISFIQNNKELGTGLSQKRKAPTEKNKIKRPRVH
UniProt P46934, whole entry: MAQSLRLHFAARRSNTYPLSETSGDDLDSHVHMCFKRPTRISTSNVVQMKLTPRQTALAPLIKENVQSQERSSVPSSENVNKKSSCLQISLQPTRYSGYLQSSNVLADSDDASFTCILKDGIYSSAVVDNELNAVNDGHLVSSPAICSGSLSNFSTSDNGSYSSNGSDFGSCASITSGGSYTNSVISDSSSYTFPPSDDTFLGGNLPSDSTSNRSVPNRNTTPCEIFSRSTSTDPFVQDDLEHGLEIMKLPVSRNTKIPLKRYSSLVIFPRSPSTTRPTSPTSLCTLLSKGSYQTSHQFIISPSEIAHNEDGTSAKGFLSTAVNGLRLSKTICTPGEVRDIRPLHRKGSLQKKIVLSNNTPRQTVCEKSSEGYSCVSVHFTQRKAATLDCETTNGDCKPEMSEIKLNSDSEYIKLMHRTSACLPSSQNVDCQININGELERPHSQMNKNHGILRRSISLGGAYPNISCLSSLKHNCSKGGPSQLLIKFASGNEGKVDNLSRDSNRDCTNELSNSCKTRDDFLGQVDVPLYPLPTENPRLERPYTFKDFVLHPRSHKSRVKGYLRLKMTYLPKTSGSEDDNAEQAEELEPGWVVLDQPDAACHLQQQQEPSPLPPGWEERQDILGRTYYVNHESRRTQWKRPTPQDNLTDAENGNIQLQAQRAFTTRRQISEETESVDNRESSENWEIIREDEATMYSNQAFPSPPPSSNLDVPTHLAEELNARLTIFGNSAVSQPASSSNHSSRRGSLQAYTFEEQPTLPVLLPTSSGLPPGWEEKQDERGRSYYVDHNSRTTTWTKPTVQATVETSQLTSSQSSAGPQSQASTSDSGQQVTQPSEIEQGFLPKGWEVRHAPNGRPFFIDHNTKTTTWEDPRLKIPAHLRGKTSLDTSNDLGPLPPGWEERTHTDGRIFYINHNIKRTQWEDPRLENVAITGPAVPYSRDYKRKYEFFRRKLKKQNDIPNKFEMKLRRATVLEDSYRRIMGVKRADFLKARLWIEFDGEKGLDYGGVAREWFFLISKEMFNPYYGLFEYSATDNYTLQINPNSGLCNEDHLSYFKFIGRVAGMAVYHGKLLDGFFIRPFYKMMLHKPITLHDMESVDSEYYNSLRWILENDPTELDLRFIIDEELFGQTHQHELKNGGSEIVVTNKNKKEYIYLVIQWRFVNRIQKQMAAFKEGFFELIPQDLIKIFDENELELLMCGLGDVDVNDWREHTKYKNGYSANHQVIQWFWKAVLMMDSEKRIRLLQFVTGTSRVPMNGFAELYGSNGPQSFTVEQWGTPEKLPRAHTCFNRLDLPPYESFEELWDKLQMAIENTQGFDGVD

Where two headings read alike, the source gives them in different places. Results are given in words; binding and its absence hold for the method and conditions named. For part of these data: Binding seen in cells or lysates may run through a third protein. Some results given as binding are weak or reduced against the parent protein; the word gives no strength.

Experiment [1] deals with TopBP1, endogenous (human (endogenous in U2OS and N/Tert-1)) (UniProt Q92547). The experiment is described as follows: co-IP.
The target is the same in experiment [2]. The experiment is described as follows: co-IP. The source holds these as a separate data set.
Experiment [3] has the same target. The experiment is described as follows: co-IP. This is another data set of the same source.
The target of experiment [4] is GST-NEDD4 control protein (UniProt P46934). The experiment is described as follows: pull-down.

Turning to “HPV16 E2 wild type (E2-WT), stably expressed in cells (from UniProt P03120 1-365)”, the binding result in experiment [1] and in experiment [2] was “binds” each time.

For “HPV16 E2-S23D, stably expressed in cells (from UniProt P03120 1-365)”, the binding entry in experiment [1], in experiment [2] and in experiment [3] was “binds” each time.

Take “His-E2-WT (amino acids 1-200), recombinant, phosphorylated by CK2 in vitro (from UniProt P03120 1-200) (domain or fragment)”: in experiment [4], the binding entry is recorded as “no binding”.
